Measured values reported in US12577239B2, “Sulfilimines or sulfoximines containing fungicidal heterocyclic compounds” (PI INDUSTRIES LTD., priority 2019, dated 2026).
Some results were stated once for a whole list of compounds, not compound by compound. For at least one compound, name, drawing or mass did not settle the structure.

Experiments:
[1] = system: Phytophthora infestans; format: cell-based; conditions: 30 ppm; Rye Agar, radial growth after seven days at 18° C., 95% relative humidity
[2] = system: Phytophthora infestans; format: in vivo, Phytophthora infestans on tomato plants; conditions: 50 ppm; preventive, tomato plants inoculated one day after treatment; visual disease severity rating
[3] = system: Plasmopara viticola; assay: Greenhouse Example B: Plasmopara viticola test in grape (preventive spray); conditions: 50 ppm, grape seedlings inoculated one day after treatment, visual disease severity rating

Structure (SMILES) | control compared to the untreated check [1] [%] | control compared to the untreated check (Efficacy, % control) [2] [%] | control compared to the untreated check (Efficacy, % control) [3] [%]
CN=S(C)(=O)c1cccc(Cl)c1C1CC(c2csc(C3CCN(C(=O)Cn4nc(C(F)(F)F)cc4C)CC3)n2)=NO1 (stereo not drawn) [Compound 5] | ≥ 70 | ≥ 70 | ≥ 70
COc1cccnc1OCC(=O)N1CCC(c2nc(C3=NOC(c4c(F)cccc4N=S(C)(C)=O)C3)cs2)CC1 (stereo not drawn) [Compound 177] | ≥ 70 | – | ≥ 70
Cc1cc(C(F)(F)F)nn1CC(=O)N1CCC(c2nc(C3=NOC(c4c(Cl)cccc4S(C)(=N)=O)C3)cs2)CC1 (stereo not drawn) [Compound 4] | ≥ 70 | ≥ 70 | ≥ 70
CCS(=O)(CC)=Nc1cccc(F)c1C1CC(c2csc(C3CCN(C(=O)Cn4nc(C(F)(F)F)cc4C(F)(F)F)CC3)n2)=NO1 (stereo not drawn) [Compound 139] | ≥ 70 | ≥ 70 | –
CN=S(C)(=O)c1cccc(C(F)F)c1C1CC(c2csc(C3CCN(C(=O)COc4ncccc4C(F)(F)F)CC3)n2)=NO1 (stereo not drawn) [Compound 144] | ≥ 70 | ≥ 70 | –
CC(C)S(C)(=O)=Nc1cccc(Cl)c1C1CC(c2csc(C3CCN(C(=O)Cn4nc(C(F)F)cc4C(F)F)CC3)n2)=NO1 (stereo not drawn) [Compound 120] | ≥ 70 | ≥ 70 | –
CS(C)(=O)=Nc1cccc(F)c1C1CC(c2csc(C3CCN(C(=O)Cn4nc(C(F)(F)F)cc4C(F)(F)F)CC3)n2)=NO1 (stereo not drawn) [Compound 7] | ≥ 70 | ≥ 70 | ≥ 70
CCN=S(C)(=O)c1cccc(Cl)c1C1CC(c2csc(C3CCN(C(=O)COc4ncccc4OC)CC3)n2)=NO1 (stereo not drawn) [Compound 157] | ≥ 70 | ≥ 70 | –
CS(C)(=O)=Nc1cccc(F)c1C1CC(c2csc(C3CCN(C(=O)Cn4nc(C(F)F)cc4C(F)F)CC3)n2)=NO1 (stereo not drawn) [Compound 31] | ≥ 70 | ≥ 70 | –
CCS(=O)(CC)=Nc1cccc(Cl)c1C1CC(c2csc(C3CCN(C(=O)Cn4nc(C(F)(F)F)cc4C)CC3)n2)=NO1 (stereo not drawn) [Compound 135] | ≥ 70 | ≥ 70 | –
CS(C)(=O)=Nc1cccc(C(F)(F)F)c1C1CC(c2csc(C3CCN(C(=O)Cn4nc(C(F)F)cc4C(F)F)CC3)n2)=NO1 (stereo not drawn) [Compound 99] | ≥ 70 | ≥ 70 | –
CN=S(C)(=O)c1cccc(Cl)c1[C@@H]1CC(c2csc(C3CCN(C(=O)C(C)n4nc(C(F)F)cc4C(F)F)CC3)n2)=NO1 (stereo partly drawn) [Compound 71] | ≥ 70 | ≥ 70 | –
C/S(=N\C#N)c1cccc(F)c1C1CC(c2csc(C3CCN(C(=O)Cn4nc(C(F)F)cc4C(F)F)CC3)n2)=NO1 (stereo not drawn) [Compound 42] | ≥ 70 | ≥ 70 | –
CN=S(C)(=O)c1cccc(C(F)F)c1C1CC(c2csc(C3CCN(C(=O)Cn4nc(C(F)(F)F)cc4C)CC3)n2)=NO1 (stereo not drawn) [Compound 148] | ≥ 70 | ≥ 70 | –
CS(C)(=O)=Nc1cccc(C(F)(F)F)c1C1CC(c2csc(C3CCN(C(=O)Cn4nc(C(F)(F)F)cc4C(F)(F)F)CC3)n2)=NO1 (stereo not drawn) [Compound 86] | ≥ 70 | ≥ 70 | –
CCS(=O)(CC)=Nc1cccc(Cl)c1C1CC(c2csc(C3CCN(C(=O)Cn4nc(C(F)F)cc4C(F)F)CC3)n2)=NO1 (stereo not drawn) [Compound 158] | ≥ 70 | ≥ 70 | –
Cc1ccc(C(F)(F)F)c(OCC(=O)N2CCC(c3nc(C4=NOC(c5c(F)cccc5N=S(C)(C)=O)C4)cs3)CC2)n1 (stereo not drawn) [Compound 14] | ≥ 70 | ≥ 70 | –
CN=S(C)(=O)c1cccc(Cl)c1C1CC(c2csc(C3CCN(C(=O)COc4ncccc4OC)CC3)n2)=NO1 (stereo not drawn) [Compound 156] | ≥ 70 | ≥ 70 | –
CN=S(C)(=O)c1cccc(C(F)F)c1C1CC(c2csc(C3CCN(C(=O)Cn4nc(C(F)(F)F)cc4C(F)(F)F)CC3)n2)=NO1 (stereo not drawn) [Compound 149] | ≥ 70 | ≥ 70 | –
Cc1cc(C(F)(F)F)nn1CC(=O)N1CCC(c2nc(C3=NOC(c4c(Cl)cccc4N=S(C)(=O)C(C)C)C3)cs2)CC1 (stereo not drawn) [Compound 118] | ≥ 70 | ≥ 70 | –
Cc1cc(C(F)(F)F)nn1CC(=O)N1CCC(c2nc(C3=NOC(c4c(F)cccc4S(C)=NC#N)C3)cs2)CC1 (single isomer, unassigned) [Compound 40] | ≥ 70 | ≥ 70 | –
CCCS(C)(=O)=Nc1cccc(F)c1C1CC(c2csc(C3CCN(C(=O)Cn4nc(C(F)F)cc4C(F)F)CC3)n2)=NO1 (stereo not drawn) [Compound 127] | ≥ 70 | ≥ 70 | –
CC(C)S(C)(=O)=Nc1cccc(F)c1C1CC(c2csc(C3CCN(C(=O)Cn4nc(C(F)(F)F)cc4C(F)(F)F)CC3)n2)=NO1 (stereo not drawn) [Compound 124] | ≥ 70 | ≥ 70 | –
CCS(=O)(CC)=Nc1cccc(F)c1C1CC(c2csc(C3CCN(C(=O)Cn4nc(C(F)(F)F)cc4C)CC3)n2)=NO1 (stereo not drawn) [Compound 138] | ≥ 70 | ≥ 70 | –
CCN=S(C)(=O)c1cccc(Cl)c1C1CC(c2csc(C3CCN(C(=O)Cn4nc(C(F)(F)F)cc4C)CC3)n2)=NO1 (stereo not drawn) [Compound 75] | ≥ 70 | ≥ 70 | –
Cc1cc(C(F)(F)F)nn1CC(=O)N1CCC(c2nc(C3=NOC(c4cc(Cl)cc5c4N=S(C)(=O)C5)C3)cs2)CC1 (stereo not drawn) [Compound 51] | ≥ 70 | ≥ 70 | –
CC(C)S(=N)(=O)c1cccc(Cl)c1C1CC(c2csc(C3CCN(C(=O)COc4ncccc4C(F)(F)F)CC3)n2)=NO1 (stereo not drawn) [Compound 65] | ≥ 70 | ≥ 70 | –
CCN=S(C)(=O)c1cccc(C(F)(F)F)c1C1CC(c2csc(C3CCN(C(=O)Cn4nc(C(F)(F)F)cc4C(F)(F)F)CC3)n2)=NO1 (stereo not drawn) [Compound 114] | ≥ 70 | ≥ 70 | –
CN=S(C)(=O)c1cccc(C(F)F)c1C1CC(c2csc(C3CCN(C(=O)Cn4nc(C(F)F)cc4C(F)F)CC3)n2)=NO1 (stereo not drawn) [Compound 152] | ≥ 70 | ≥ 70 | –
Cc1cc(C(F)(F)F)nn1CC(=O)N1CCC(c2csc(C3=NOC(c4c(F)cccc4N=S(C)(C)=O)C3)n2)CC1 (stereo not drawn) [Compound 175] | ≥ 70 | – | ≥ 70
